Article PMC7373899
The exact form of at least one protein or probe is not confirmed. At least one result comes from cells or an extract, where the contact may be indirect.

Amino acid sequences for entries named in this document (tags omitted). A change or cut given only in a name is not applied to a line headed by its entry.
UniProt P42224: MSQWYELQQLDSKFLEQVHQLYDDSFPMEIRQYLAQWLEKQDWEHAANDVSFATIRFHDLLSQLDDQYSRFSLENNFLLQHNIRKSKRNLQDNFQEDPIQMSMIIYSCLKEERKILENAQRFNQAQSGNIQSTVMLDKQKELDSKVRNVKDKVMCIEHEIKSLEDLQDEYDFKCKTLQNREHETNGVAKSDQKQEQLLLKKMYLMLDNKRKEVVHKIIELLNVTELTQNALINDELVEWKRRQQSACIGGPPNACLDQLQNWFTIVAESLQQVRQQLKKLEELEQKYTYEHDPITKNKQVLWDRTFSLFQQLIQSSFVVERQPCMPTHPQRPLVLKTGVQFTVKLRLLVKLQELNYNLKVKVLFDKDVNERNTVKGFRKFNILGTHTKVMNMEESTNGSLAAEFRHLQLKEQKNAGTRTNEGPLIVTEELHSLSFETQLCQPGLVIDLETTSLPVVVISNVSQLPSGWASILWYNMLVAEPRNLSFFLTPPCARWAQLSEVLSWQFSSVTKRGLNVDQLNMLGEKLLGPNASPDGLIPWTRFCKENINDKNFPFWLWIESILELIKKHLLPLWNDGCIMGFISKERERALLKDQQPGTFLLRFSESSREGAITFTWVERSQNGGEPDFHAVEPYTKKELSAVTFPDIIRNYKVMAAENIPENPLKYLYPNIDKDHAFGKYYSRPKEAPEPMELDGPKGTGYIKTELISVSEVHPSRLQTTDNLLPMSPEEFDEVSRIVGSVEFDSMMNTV

Molecular target: pSTAT1 homodimer (UniProt P42224)
Assay: EMSA supershift
Details: nuclear lysate, 1 h after 1,400 pM IFNa, no prestimulation, complex much reduced after 280 pM prestimulation; 20 mM HEPES pH 7.9, 50 mM KCl, 1 mM MgCl2, 1 mM DTT, 0.1 mM EDTA, 5% glycerol, 200 ug/ml BSA, 1 ug poly[dI-dC], 5 ug nuclear lysate in 19 ul; 20 min on ice; protein in an extract; label: 32P 5' end (T4 PNK)

“CATTTCGGGGAAATCAGGC (double strand) [GAS-binding region of human IRF1 promoter]”: binds.
